About 2,100 (0.66%) of roughly 320,000 compounds were called active. The shares of active, inactive and inconclusive entries below differ from those in the screen. Calls come from the whole dose curve; as a rule, active = well fitted inhibition curve with a large enough effect in the signal ratio, with a control signal flat (not every such curve was filed as active); inconclusive = small, poorly fitted or top-dose-only effect, or effect the other way, or a change in a side signal; inactive = flat fitted curve, though single readings scatter; the % refers to the signal ratio. Potencies of inconclusive entries are doubtful fits and often do not repeat.
Assay: qHTS Assay for Lipid Storage Modulators in Drosophila S3 Cells
Settings: BODIPY lipid droplet fluorescence, 18-24 h, cells fed with added oleic acid; lipid storage change, negative = inhibition: at 46.1 µM (top of the series) unless noted
How it was run: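 Drosophila S3 cells loaded with oleic acid (400 uM, as added) and compounds at several concentrations; lipid droplets imaged by 488-nm laser-scanning cytometry, 500–530 nm intensity and object ratio to cell channel. Percent activity normalized to 20 uM Triacsin C.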
In the case of `Cc1nn(C(=O)c2cccc([N+](=O)[O-])c2)c(C)c1Br`, the lipid storage change, negative = inhibition is reported as inconclusive: 469%. In the case of `COc1cc(NC(=O)C2CCN(S(=O)(=O)c3ccc4c(c3)CC(C)N4C(C)=O)CC2)cc(OC)c1OC` (stereo not drawn), the lipid storage change, negative = inhibition is reported as inconclusive: 22.6%. With `CCN(C(=O)COC(=O)c1cc(-c2cccs2)nc2ccccc12)C1CCS(=O)(=O)C1` (stereo not drawn) the lipid storage change, negative = inhibition was inconclusive: 18.7%. With `COc1ccc(CN(C)C(=O)c2oc3ccccc3c2CSC)cc1F` the Potency was inconclusive: 29.1 µM [falling, single point]. For `C=CCn1c(SC(C)C(N)=O)nc2sc(CC)cc2c1=O` (stereo not drawn), the lipid storage change, negative = inhibition was inconclusive: 24.4%. In the case of `O=C(N/N=C/c1ccc[nH]1)c1cc(-c2ccc(Cl)cc2)nc2ccccc12`, the lipid storage change, negative = inhibition is reported as inconclusive: 10.8%. For `O=C(Nc1ccc(Br)cc1)c1ccccc1CC[N+](=O)[O-]`, the lipid storage change, negative = inhibition was inconclusive: 46.9%. In the case of `COc1ccc(CCNC(=O)/C=C/c2ccco2)cc1OC`, the Potency is reported as inconclusive: 29.1 µM [falling, single point]. With `O=C(N1CCCCC1)N1CCC(c2nc3ccccc3[nH]2)CC1` the lipid storage change, negative = inhibition was inconclusive: -32.8%. With `Cc1ccc(S(=O)(=O)N2CCOC2CNC(=O)C(=O)NCc2ccc3c(c2)OCO3)cc1` (stereo not drawn) the Potency was inconclusive: 8.2 µM [activator, single point]. In the case of `COc1cc(/C=N/Nc2nc(=O)[nH]nc2C)cc(OC)c1O`, the lipid storage change, negative = inhibition is reported as inconclusive: 24.9%. For `CNCCCCOc1ccc(C(C)(C)C)cc1Cl`, the lipid storage change, negative = inhibition was inconclusive: -22% [at 9.22 µM]. For `COC(=O)[C@@]1(Cc2ccc(OC)cc2)[C@H]2c3cc(C(=O)N4CCCC4)n(CCN4CCNC4=O)c3C[C@H]2CN1C(=O)c1ccccc1`, the lipid storage change, negative = inhibition was inconclusive: 3.4%. For `COCC(C)n1c(SCc2ccc(C(=O)OC)cc2)nc2ccccc2c1=O` (stereo not drawn), the lipid storage change, negative = inhibition was inconclusive: 17.6%. For `CC(C)Cn1c(N)c(C(=O)COC(=O)c2ccc3ccccc3n2)c(=O)n(C)c1=O`, the lipid storage change, negative = inhibition was inconclusive: 108%. For `CC(=O)c1cccc(OC(=O)c2ccc3c(=O)n4c(nc3c2)CCC4)c1`, the lipid storage change, negative = inhibition was “inconclusive”. With `CCNc1ccc(Br)cc(C(=O)/C=C/c2ccc3c(c2)OCO3)c1=O` the Potency was inconclusive: 0.092 µM [activator, full curve, poor fit]. For `Cc1cc(=O)oc2cc(NC(=O)c3cc4ccccc4o3)ccc12`, the Potency was inconclusive: 5.17 µM [activator, partial curve, poor fit]. For `CC1(c2ccc(Cl)cc2)NC(=O)N(CN2CCOCC2)C1=O` (stereo not drawn), the lipid storage change, negative = inhibition was inconclusive: 25.5%. For `CCOC(=O)COc1ccc(Br)cc1/C=C1\SC(N)=NC1=O`, the Potency was active: 5.8 µM. In the case of `COC(=O)C(NC(=O)CNS(=O)(=O)c1ccc(Br)cc1)c1ccccc1` (stereo not drawn), the lipid storage change, negative = inhibition is reported as inconclusive: 19.9%. In the case of `O=C(N/C=C/c1ccccc1)c1ccccc1`, the lipid storage change, negative = inhibition is reported as inconclusive: 17.3%. In the case of `O=S(=O)(CCSc1ccccn1)c1nc2ccccc2s1`, the Potency is reported as inconclusive: 6.51 µM [falling, single point]. With `CC1CCCN(C(=O)C2CCN(CC3CC=CCC3)CC2)C1` (stereo not drawn) the Potency was inconclusive: 0.259 µM [activator, full curve]. For `CCCn1c(C)cs/c1=N\C(=S)Nc1ccccc1`, the Potency was inconclusive: 0.164 µM [activator, partial curve, poor fit]. For `O=C(CSc1nnc(-c2ccco2)o1)NCC(=O)c1ccccc1`, the Potency was inconclusive: 29.1 µM [activator, single point]. In the case of `Cc1ccc(-c2cc(C(=O)N/N=C/c3ccc(Cl)cc3)n[nH]2)o1`, the lipid storage change, negative = inhibition is reported as inconclusive: -97.9%. For `CC1=NN(C(=O)c2csc(C)c2)C(O)(C(F)(F)F)C1` (stereo not drawn), the lipid storage change, negative = inhibition was inconclusive: -59.7%. For `CCOc1ccc(NC(=O)c2ccc(N3CC4CC(C3)c3cccc(=O)n3C4)c(NC(=O)c3ccncc3)c2)cc1` (stereo not drawn), the lipid storage change, negative = inhibition was inconclusive: 102%. For `CC(=O)c1ccc(Cc2ccccc2)cc1`, the lipid storage change, negative = inhibition was inconclusive: -5.51%. For `CCCCn1c2c(c(=O)n(C)c1=O)C(CC(=O)OCC(=O)Nc1cccc(C(F)(F)F)c1)C(=O)N2` (stereo not drawn), the Potency was inconclusive: 6.51 µM [falling, single point]. In the case of `Cc1ccc(CNC(=O)COc2ccc(S(=O)(=O)NC(C)C)cc2)cc1`, the Potency is reported as inconclusive: 14.6 µM [rising, partial curve]. With `Cc1cc(C)cc(CSCC(=O)N/N=C/c2ccc(OCC(=O)NCc3ccco3)cc2)c1` the lipid storage change, negative = inhibition was inconclusive: -58.2%. With `CCc1ccc2nc(SCC(=O)Nc3ccccc3N3CCOCC3)c(C#N)cc2c1` the Potency was inconclusive: 2.59 µM [falling, full curve, poor fit]. In the case of `Cc1cc(Cl)ccc1OCC(=O)n1cc(C(=O)c2cc(Cl)ccc2O)cn1`, the lipid storage change, negative = inhibition is reported as inconclusive: -9.04%. In the case of `O=C(CN1C(=O)C2CCCCC2C1=O)Nc1cc(C(F)(F)F)ccc1N1CCCC1` (stereo not drawn), the lipid storage change, negative = inhibition is reported as inconclusive: 21.2%. With `CCNc1nc(N)nc(Oc2ccc(OCc3ccccc3)nn2)n1` the lipid storage change, negative = inhibition was inconclusive: 5.64%. With `CC1CN(S(=O)(=O)c2ccc(F)cc2)CN1C(=O)N1CCOCC1` (stereo not drawn) the lipid storage change, negative = inhibition was inconclusive: -98%.

From PubChem BioAssay AID2685 (National Center for Advancing Translational Sciences (NCATS), 2010)
% is set by controls: 0 for no effect and ±100 for the full control effect; potency is the fitted concentration of half-maximal effect.
